{"source": "patent US20160129030A1", "about": "“TREATMENT OF MTOR HYPERACTIVE RELATED DISEASES AND DISORDERS” (priority 2013, published 2016)", "tested_on": "621-101 cells", "experimental": "Candidate compounds were screened for cytotoxic or anti-proliferative activity in cells lacking TSC2.\nThe screen is being performed in 621-101 cells (which are derived from an angiomyolipoma (AML) of a patient with LAM and have a bi-allelic TSC2 inactivating mutation). The 621-101 cells are plated at 1250 cells/well in 384-well plates and grown overnight. Compound libraries are then added at the ICCB and allowed to incubate for 48-72 h. […] Treatment with staurosporine (1-2 uM) represents a positive control for cell death.\nThe inventors screened the Known Bioactives Collection at the ICCB which consists of approximately 7,000 compounds.", "note": "Counter-ions that a name gives are not always drawn.", "data": [{"smiles": "CN1CCC[C@@H]1CCO[C@](C)(c1ccccc1)c1ccc(Cl)cc1", "note": "[clemastine fumarate]", "values": [{"measurement": "cytotoxic or antiproliferative activity", "value": "cytotoxic or antiproliferative activity in the absence of rapamycin"}, {"measurement": "effectiveness depending on mTOR pathway activity", "setting": "mTOR pathway active vs. rapamycin pretreatment", "value": "only effective when the mTOR pathway is active"}]}]}
